In patent publication US8440708B2, “Triazole-substituted arylamides as P2X3 and P2X2/3 antagonists” (Roche Palo Alto LLC, priority 2007, dated 2013):
Structures were worked out from names or drawings and are uncertain.

Sequences of proteins named here, by UniProt entry; tags and fusion partners are left off.
UniProt P49654, whole entry: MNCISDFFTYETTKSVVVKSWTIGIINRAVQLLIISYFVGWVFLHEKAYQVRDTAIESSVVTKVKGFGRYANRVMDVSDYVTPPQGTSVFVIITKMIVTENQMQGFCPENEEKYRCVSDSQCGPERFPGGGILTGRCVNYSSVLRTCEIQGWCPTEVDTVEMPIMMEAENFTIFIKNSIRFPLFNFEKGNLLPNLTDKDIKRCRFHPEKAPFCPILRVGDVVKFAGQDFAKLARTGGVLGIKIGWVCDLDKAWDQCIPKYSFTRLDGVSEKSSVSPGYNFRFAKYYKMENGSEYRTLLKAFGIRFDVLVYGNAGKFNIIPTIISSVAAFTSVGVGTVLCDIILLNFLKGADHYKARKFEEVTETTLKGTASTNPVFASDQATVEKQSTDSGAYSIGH
UniProt P56373, whole entry: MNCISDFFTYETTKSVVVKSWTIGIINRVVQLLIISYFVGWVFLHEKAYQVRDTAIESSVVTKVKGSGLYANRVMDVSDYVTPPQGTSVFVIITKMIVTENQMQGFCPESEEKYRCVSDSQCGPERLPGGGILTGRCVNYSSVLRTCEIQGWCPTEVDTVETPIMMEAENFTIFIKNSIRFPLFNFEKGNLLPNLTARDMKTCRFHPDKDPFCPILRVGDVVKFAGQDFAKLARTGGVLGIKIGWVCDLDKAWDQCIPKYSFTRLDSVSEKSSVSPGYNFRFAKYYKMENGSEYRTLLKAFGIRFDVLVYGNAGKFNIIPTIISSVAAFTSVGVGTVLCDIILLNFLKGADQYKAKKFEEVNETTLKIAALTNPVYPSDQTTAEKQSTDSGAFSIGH
UniProt Q9UBL9, whole entry: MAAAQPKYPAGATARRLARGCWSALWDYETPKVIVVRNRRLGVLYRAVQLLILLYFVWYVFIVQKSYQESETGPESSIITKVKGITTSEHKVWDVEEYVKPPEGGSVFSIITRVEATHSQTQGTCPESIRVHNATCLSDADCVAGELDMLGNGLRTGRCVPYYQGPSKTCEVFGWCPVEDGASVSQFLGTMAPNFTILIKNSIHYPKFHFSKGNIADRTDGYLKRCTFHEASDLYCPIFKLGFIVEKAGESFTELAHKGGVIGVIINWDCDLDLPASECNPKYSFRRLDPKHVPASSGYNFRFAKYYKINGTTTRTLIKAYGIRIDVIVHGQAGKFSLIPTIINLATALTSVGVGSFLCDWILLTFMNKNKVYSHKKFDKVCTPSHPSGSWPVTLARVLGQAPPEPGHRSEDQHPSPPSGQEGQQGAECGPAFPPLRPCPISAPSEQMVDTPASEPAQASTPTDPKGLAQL

Experiments:
rat P2X3 receptor = rat P2X3 receptor (Rattus norvegicus, UniProt P49654); test: P2X3/P2X2/3 FLIPR (Fluorometric Imaging Plate Reader) Assay, P2X3; settings: CHO-K1 cells transfected with rat P2X3; agonist α,β-meATP 1 μM; Table 1
Experimental: P2X3/P2X2/3 FLIPR (Fluorometric Imaging Plate Reader) Assay
CHO-K1 cells were transfected with cloned rat P2X3 or human P2X2/3 receptor subunits and passaged in flasks. 18-24 hours before the FLIPR experiment, cells were released from their flasks, centrifuged, and resuspended in nutrient medium at 2.5×10^5 cells/ml. The cells were aliquoted into black-walled 96-well plates at a density of 50,000 cells/well and incubated overnight in 5% CO2 at 37° C. On the day of the experiment, cells were washed in FLIPR buffer (calcium- and magnesium-free Hank's balanced salt solution, 10 mM HEPES, 2 mM CaCl2, 2.5 mM probenecid; FB). […]
Test compounds (dissolved in DMSO at 10 mM and serially diluted with FB) or vehicle were added to each well (25 μl of a 4× solution) and allowed to equilibrate for 20 minutes at room temperature. The plates were then placed in the FLIPR and a baseline fluorescence measurement (excitation at 488 nm and emission at 510-570 nm) was obtained for 10 seconds before a 100 μl/well agonist or vehicle addition. […] Fluorescence was measured for an additional 2 minutes at 1 second intervals after agonist addition. A final addition of ionomycin (5 μM, final concentration) was made to each well of the FLIPR test plate to establish cell viability and maximum fluorescence of dye-bound cytosolic calcium. […]

human P2X2/3 receptor = human P2X2/3 receptor (Homo sapiens, UniProt P56373+Q9UBL9); test: P2X3/P2X2/3 FLIPR (Fluorometric Imaging Plate Reader) Assay, P2X2/3; settings: CHO-K1 cells transfected with human P2X2/3; agonist α,β-meATP 5 μM; Table 1

Cc1ccc(-c2cc(C(=O)N[C@@H](C)CO)cc(-n3ncnc3C3CCC3)c2)nc1
P2X3 pKi (rat P2X3 receptor): 8.25
P2X2/3 pKi (human P2X2/3 receptor): 6.25
